Measured values from paper doi:10.1101/2020.05.14.096990.
Residue numbers refer to the chain shown, from its start. No constants are given. Whether binding was seen depends on the method and setting. Binding seen in cells or lysates may run through a third protein. Some binding calls cover weakened binding; strength is not graded here.

The chains behind the UniProt entries cited, without tags or fusion partners. Residues count along the entry.
UniProt P48614, residues 29-389: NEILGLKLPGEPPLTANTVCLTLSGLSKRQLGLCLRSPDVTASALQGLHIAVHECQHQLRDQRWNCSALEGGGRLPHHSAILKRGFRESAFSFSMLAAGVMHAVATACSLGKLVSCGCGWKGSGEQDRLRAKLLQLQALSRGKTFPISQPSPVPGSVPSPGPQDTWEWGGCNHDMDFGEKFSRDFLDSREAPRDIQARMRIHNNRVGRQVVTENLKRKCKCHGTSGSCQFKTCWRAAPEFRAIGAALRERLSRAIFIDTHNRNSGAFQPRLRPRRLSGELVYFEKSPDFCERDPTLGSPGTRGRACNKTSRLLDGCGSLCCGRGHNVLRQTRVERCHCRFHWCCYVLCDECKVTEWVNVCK

Key:
[1] = target: T1, FSTL1 glycosylation-mutant (MT: N142/173/178Q) (UniProt Q62356); assay: co-IP
T1 sequence: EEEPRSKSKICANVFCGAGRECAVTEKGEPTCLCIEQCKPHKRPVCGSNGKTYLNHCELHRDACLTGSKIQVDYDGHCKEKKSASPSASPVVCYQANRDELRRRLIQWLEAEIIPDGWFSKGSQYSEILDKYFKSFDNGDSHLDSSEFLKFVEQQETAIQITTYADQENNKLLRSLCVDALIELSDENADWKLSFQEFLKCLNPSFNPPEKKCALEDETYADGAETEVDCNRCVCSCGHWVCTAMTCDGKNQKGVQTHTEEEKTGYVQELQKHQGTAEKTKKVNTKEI

[2] = target: T2, FSTL1 wildtype (follistatin like 1) (UniProt Q62356); assay: co-IP
T2 sequence: T1 sequence with Q124N, Q155N, Q160N

Substance: WNT10B (from UniProt P48614 29-389)
- binding [1]: binds
- binding [2]: binds
